Results are given in words; binding and its absence hold for the method and conditions named. Binding seen in cells or lysates may run through a third protein. These calls come from enrichment with a bait or labelling near it, and not all partners need be listed.
biological target: PDGF alpha receptor IgG Fc-receptor extracellular domain fusion protein (UniProt P16234); test: SELDI mass spectrometry (ProteinChip); receptor-Fc captured on protein A, compared with an Fc only control

Sequences of proteins named here, by UniProt entry; tags and fusion partners are left off. Residues count along the entry.
UniProt P16234, residues 24-528: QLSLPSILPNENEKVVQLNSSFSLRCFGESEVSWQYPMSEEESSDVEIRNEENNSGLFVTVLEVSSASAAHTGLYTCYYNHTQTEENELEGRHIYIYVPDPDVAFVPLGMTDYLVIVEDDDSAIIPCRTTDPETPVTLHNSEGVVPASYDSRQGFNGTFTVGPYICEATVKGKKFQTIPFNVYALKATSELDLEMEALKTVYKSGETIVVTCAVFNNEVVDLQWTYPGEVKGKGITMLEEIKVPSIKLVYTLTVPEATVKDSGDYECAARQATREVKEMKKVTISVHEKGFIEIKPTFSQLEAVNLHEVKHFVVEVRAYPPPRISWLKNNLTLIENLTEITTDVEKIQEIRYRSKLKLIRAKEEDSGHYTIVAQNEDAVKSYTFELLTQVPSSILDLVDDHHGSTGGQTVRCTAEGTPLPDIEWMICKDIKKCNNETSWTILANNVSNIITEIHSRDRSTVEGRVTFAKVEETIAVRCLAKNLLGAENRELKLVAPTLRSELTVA
UniProt P01127, residues 82-190: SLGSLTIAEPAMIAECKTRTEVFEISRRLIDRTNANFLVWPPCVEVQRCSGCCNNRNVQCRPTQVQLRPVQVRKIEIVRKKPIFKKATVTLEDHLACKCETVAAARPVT

binding, binds:
PDGF AB (from UniProt P04085 87-211; P01127 82-190) (ligand), PDGF-AA (from UniProt P04085 87-211) (ligand), PDGF-BB (from UniProt P01127 82-190) (ligand)
